Our source for the enrichment score values is the supplement of paper PMC11237882.

Some of the results follow. Values are worked out from sequencing counts and are noisy.

The assay concerns the target T1, Homer1 EVH1 domain.
T1 chain: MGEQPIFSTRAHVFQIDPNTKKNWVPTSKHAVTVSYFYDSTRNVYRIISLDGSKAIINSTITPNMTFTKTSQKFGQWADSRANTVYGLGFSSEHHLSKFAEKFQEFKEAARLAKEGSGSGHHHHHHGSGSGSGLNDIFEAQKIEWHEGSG
Briefly: enrichment score (AUC of log2 frequency ratio across FACS sorting rounds) (log2 AUC); higher = stronger enrichment for Homer1 EVH1 binding.
In the case of EFGRGNPFMLFLCLAILLEHRDHIMRNGLDYNELAK, the enrichment score came to 1.91. The value for LLAILITTLVYVGIAVSVGSCVVRDATGNVNDTIVT was 1.23.

As to AAAQLITMLWSLSVSSFAVGGMTASFFGGWLGDTLG, the enrichment score turned out to be 0.395. As for IQKASVLFFLAWVCFLFYAGIALFTSGFLLTRLELT, the figure is 3.55. The value for VLSAINVGKSIMFAMTPLLIATSSLMPFIGFLLGYV was -2.73. The value for RRDSEPNGNLEMHDGDATGEKIYKCDECGKTFTWIR was -0.338; that for MAKMNLSSYILILTFSLFSQGILLSASKSIRNLDDD was 1.67. HGFHPEENAREYGGAPSLQAQTVLLLLPLLLMLFSR: the enrichment score is 2.11. Regarding MSPLLGLRSELQDTCTSLGLMLSVVLLMGLARVVAR, the enrichment score worked out at 2. On to RDMNQTLGDNITVKMYSPSWPSFDYTMVVIFVIAVF, for which the enrichment score worked out at 1.17.

For the molecule KALKASLTLGILLGMFFVTWLPFFVANIVQAVCDCI, the enrichment score worked out at 1.94. For the molecule GSTLNENKTPWFEMEGNLAPEDFKKFKKPLLPQLRR, the enrichment score was 1.77. For MSSDFPHYNFRMPNIGFQNLPLNIYIVVFVLLFLSS, the enrichment score stood at 2.96. The value for PAMCLLIYLYSLVKWYFIITIVIFVLQERIFGGLEI was 0.43; that for PQNGLKIRPFMKAHLNRDKDKELLKLTQYLKEIAKL was 1.23. The value for YLGDRYNRKYLMCGGIAFWSLVTLGSSFIPGEHFWL was -0.49. As for HADVLACLLFLLAFLSYNRSLDQGCVGGSFPSTVSP, the figure is 3.99.

On to MPGQNYRTISEFILSGFSAFPQQLLPVLFLLYLLMF, for which the enrichment score amounted to 3.15.

On to LKDPSRAIPLGTIVAVAYTFFVYLLLFFLSSFTCDR, for which the enrichment score was 5.64. On to TQNTDVYPGLAVFFQNALIFFSTLIYKFGRTEELWT, for which the enrichment score was -2.14. As for SNDSDTVRSLKPWSQGTFSDQQWETLQHIFRVYRSS, the figure is -0.574; as for TVPPPPAALAVFSAALLLEVLSLAVSIRMVFFLEDV, -1.08. As for RRHIQKMQKNATGFWNPQTEAHVGAMKLMVYFLILY, the figure is -0.596; as for QQTLPNSHLTEEALKVSIVPGPGDQKTGIPSAPSSF, 1.69; as for RKLGIVCLLSYLGLATLSVLYELGIIGNNKIRSCGG, 2.7. As for LFMPICATYLLIFVVGAMGNGLTCLVILRHKAMRTP, the figure is 2.13; as for VGTATFLRGVLLIIPFTFLTKRLPYCRGNILPHTYC, 1.68.

On to ICLSGLGLFILYLFYIVLTLYSSPTEKNNDTQKHQG, for which the enrichment score turned out to be 2.28. As for RITSMDARGSTSAISNVHPMSSYMPIVLFLIVYVLW, the figure is 0.45; as for GFVPYIGIGTSIMNDYPKHKYEVLFLLGLFVLVHRE, 3.39; as for MESERSKRMGNACIPLKRIAYFLCLLSALLLTEGKK, -1.6. Turning to MDFLVLFLFYLASVLMGLVLICVCSKTHSLKGLARG, the enrichment score came to 0.998. Consider PKGVGAIYIRRRPRVRVEALQSGGGQERGMRSGTVP, for which the enrichment score was -0.243. As for GAGADEGVRRSLSPELREGDPSSSQHLPSTPSSPRV, the figure is 0.903; as for YFTIQNPSNVDHYSKLLFPLIFMLANVFYWAYYMYF, 0.778. On to KNAWKNNVFFSWSYFSGWLALPFSILAGFCFLLADM, for which the enrichment score was determined as 3.62. The value for LVRDVVSSLRRHRMHEQQFAHPPLLVLNSFGPHGMH was -0.114. With LWWRACWFVITPILLIAIFIWSLVQFHRPNYGAIPY, the enrichment score turned out to be 1.14. The value for FTLLPLLTMAYLKGDLRRMWSEPFHSKSSSSRFLEV was 1.58; that for GKGKFKGVGRSYRIAKSAAARRALRSLKAKSTSGSE was 2.45; that for EDAYLILRRHGNLFITLFALMLTAGLPELTSVKDIQ was 0.261. TLRYKKLRQPLNYILVNVSFGGFLLCIFSVFPVFVA: the enrichment score was found to be 0.19.

As to TCTLPLIMFMIGRKWIKSGQKVKKKRWPPERDIHIY, the enrichment score was -0.334. As for ISPEEEYKIACLLMVFVAVSLPTLASNVMSQYSPAI, the figure is 1.3.
